Data published in the supplement of paper PMC12819154, “High-throughput peptide-centric local stability assay extends protein–ligand identification to membrane proteins, tissues and bacteria” (Nature Structural & Molecular Biology, 2025).
Some of the results follow. Small differences around the control level are noise.

Amino acid sequences for entries named in this document (tags omitted). A change or cut given only in a name is not applied to a line headed by its entry.
UniProt P36993: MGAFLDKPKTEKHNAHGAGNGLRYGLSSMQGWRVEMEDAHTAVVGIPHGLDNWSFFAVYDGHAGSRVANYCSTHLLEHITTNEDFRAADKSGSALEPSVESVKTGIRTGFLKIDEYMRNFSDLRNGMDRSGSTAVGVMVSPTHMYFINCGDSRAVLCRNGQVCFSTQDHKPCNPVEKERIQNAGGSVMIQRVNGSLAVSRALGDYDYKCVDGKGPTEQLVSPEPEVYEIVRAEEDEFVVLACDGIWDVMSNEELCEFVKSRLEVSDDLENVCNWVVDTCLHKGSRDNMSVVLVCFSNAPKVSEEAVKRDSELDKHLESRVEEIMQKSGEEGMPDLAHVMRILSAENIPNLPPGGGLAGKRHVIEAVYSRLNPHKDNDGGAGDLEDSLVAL
UniProt P51855: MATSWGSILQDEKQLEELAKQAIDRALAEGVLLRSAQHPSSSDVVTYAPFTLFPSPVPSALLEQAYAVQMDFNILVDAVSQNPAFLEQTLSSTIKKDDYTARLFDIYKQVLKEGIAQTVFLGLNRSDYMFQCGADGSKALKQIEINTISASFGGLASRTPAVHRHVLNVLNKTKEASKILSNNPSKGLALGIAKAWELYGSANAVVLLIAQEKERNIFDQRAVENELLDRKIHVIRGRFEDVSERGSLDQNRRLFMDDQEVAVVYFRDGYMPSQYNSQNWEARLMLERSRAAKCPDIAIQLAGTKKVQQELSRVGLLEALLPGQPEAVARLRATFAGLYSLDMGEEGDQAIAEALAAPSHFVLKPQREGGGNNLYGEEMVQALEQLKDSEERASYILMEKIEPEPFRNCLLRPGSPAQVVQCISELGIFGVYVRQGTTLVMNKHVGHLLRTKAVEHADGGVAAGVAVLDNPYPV
UniProt P51125: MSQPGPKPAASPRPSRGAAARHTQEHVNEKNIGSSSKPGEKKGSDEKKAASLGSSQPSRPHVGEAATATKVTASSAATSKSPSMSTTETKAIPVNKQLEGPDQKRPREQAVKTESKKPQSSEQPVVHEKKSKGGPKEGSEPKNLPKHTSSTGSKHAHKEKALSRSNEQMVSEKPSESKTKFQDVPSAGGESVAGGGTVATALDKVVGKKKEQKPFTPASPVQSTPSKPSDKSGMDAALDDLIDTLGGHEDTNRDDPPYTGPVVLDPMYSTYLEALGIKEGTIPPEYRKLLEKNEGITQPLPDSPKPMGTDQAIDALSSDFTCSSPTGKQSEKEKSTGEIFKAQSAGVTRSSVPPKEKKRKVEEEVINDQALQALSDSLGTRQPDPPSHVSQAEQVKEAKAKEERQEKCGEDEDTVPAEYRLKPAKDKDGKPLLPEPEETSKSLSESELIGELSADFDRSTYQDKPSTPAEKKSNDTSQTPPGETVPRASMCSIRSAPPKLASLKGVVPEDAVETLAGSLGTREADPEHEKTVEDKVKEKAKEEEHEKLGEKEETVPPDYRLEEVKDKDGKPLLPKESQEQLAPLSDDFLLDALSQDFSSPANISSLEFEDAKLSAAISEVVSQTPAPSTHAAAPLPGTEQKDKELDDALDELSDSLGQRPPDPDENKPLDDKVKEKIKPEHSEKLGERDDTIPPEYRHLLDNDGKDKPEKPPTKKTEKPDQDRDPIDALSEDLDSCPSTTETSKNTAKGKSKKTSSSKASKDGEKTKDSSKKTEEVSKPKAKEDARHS
UniProt P51612: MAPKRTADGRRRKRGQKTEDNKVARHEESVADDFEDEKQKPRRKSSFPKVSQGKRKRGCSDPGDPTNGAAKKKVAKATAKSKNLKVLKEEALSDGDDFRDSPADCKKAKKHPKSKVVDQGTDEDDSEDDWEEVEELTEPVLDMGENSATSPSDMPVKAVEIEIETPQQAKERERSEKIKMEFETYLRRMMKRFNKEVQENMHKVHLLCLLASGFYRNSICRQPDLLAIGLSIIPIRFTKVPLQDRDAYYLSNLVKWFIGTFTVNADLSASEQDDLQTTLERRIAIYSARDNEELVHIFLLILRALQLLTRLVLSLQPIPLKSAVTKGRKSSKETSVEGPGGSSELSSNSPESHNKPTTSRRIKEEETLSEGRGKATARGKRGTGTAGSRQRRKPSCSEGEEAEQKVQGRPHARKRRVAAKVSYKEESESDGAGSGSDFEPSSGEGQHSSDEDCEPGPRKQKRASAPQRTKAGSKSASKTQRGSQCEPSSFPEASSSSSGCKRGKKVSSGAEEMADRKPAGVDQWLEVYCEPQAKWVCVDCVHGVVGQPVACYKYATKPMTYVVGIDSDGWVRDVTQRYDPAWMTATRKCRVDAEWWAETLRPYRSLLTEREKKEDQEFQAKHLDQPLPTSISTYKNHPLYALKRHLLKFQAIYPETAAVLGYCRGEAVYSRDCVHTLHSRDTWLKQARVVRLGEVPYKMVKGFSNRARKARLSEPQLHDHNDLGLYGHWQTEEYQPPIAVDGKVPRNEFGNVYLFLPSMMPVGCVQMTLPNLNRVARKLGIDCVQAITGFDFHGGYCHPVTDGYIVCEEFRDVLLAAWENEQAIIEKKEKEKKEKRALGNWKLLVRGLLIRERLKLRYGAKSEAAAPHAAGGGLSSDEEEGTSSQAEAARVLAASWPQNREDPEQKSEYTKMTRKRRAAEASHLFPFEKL
UniProt P49698: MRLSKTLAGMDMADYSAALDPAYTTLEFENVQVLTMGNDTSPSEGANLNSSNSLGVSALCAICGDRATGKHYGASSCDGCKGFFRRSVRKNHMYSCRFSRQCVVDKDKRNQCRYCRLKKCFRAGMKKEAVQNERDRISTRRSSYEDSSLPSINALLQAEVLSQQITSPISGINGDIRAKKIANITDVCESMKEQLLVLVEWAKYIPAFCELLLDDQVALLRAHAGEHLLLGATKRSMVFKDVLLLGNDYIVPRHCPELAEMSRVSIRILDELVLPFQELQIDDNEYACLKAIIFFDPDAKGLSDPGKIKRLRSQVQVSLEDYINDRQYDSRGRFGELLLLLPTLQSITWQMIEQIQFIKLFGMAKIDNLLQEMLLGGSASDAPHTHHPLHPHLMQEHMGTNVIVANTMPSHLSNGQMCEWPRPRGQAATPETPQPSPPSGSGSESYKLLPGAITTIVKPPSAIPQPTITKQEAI
UniProt P40694: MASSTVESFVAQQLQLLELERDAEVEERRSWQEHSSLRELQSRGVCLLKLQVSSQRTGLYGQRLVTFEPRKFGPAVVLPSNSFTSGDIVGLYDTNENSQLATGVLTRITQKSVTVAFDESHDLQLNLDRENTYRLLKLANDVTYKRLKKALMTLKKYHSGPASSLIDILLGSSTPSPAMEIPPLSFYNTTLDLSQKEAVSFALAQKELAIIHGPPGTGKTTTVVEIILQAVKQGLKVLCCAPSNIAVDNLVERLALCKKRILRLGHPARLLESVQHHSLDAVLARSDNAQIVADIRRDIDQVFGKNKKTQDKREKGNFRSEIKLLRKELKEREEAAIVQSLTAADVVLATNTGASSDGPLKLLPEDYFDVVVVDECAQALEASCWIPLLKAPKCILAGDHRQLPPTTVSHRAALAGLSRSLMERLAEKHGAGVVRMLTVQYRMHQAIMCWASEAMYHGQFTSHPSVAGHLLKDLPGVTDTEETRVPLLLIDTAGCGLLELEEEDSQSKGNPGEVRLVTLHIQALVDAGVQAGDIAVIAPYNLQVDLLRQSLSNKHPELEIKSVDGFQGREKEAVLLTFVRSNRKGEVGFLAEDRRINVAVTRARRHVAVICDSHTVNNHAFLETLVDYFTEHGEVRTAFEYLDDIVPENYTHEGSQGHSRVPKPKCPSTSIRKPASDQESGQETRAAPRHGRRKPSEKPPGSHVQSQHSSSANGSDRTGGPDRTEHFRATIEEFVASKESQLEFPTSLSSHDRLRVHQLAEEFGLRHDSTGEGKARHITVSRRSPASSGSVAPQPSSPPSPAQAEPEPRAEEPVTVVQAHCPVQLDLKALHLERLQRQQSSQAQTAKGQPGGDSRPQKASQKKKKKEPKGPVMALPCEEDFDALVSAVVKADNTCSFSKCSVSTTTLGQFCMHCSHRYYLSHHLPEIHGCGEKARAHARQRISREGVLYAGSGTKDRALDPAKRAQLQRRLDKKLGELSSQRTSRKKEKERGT
UniProt P35585: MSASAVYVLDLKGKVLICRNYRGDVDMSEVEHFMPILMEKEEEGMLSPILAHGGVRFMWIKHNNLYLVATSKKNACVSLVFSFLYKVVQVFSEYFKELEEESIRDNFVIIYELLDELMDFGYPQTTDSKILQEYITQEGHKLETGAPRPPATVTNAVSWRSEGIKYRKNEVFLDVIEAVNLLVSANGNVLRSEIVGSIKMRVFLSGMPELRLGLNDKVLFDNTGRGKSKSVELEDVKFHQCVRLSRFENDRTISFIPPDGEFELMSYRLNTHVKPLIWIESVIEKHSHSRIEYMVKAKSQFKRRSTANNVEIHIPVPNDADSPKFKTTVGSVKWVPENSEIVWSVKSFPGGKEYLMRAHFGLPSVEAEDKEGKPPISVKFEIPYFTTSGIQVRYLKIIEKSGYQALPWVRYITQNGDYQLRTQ
UniProt P53762, whole entry: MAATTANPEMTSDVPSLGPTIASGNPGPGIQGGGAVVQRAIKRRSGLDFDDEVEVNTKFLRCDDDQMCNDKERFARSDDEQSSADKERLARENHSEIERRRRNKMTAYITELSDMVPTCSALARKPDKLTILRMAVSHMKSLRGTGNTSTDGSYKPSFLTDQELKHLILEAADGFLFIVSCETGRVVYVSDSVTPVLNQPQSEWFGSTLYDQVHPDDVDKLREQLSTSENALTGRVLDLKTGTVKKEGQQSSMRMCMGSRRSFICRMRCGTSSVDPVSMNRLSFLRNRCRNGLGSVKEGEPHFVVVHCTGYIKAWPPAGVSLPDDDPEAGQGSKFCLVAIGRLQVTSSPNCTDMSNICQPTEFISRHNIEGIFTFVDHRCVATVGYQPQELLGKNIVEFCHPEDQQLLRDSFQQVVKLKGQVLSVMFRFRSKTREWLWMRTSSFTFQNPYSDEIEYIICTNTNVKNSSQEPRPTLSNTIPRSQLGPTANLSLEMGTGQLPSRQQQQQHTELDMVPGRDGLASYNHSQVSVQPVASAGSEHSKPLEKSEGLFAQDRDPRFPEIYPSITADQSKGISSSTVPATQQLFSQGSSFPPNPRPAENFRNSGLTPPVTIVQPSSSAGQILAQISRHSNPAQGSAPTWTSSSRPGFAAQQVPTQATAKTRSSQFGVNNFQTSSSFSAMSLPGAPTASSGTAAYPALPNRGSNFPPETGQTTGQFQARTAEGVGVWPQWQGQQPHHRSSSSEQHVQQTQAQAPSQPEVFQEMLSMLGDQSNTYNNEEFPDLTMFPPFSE
UniProt P38585: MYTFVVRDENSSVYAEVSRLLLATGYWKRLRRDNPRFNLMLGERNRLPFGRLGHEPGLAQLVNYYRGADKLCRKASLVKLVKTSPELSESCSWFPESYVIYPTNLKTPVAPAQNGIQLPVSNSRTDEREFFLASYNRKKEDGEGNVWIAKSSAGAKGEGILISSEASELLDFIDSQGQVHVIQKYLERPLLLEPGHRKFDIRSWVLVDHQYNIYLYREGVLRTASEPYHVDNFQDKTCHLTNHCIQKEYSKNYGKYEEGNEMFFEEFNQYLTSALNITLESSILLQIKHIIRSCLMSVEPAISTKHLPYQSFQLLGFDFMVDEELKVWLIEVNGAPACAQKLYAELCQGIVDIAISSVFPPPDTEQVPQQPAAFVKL

Compound: CN[C@@H]1C[C@H]2O[C@@](C)([C@@H]1OC)n1c3ccccc3c3c4c(c5c6ccccc6n2c5c31)C(=O)NC4 [staurosporine]
Assay: log2 fold change of tryptic peptide abundance, ligand vs vehicle (limited proteolysis) (log2 ratio); higher = more trypsin-susceptible (destabilized)
Details: ligand concentration: 20 uM; sample: mouse liver crude lysate; replicate design: treated separately

Question: With “UniProt P53612 (peptide sequence: SDAPDTLLLEK, peptide start residue: 20)” as the target, how does the log2 fold change read?
Answer: -0.672

Question: Which log2 fold change does the source give for “UniProt P53808 (peptide sequence: QSLAIESDGK, peptide start residue: 157)” here?
Answer: -0.436

Question: For “UniProt P36993 (peptide sequence: ILSAENIPNLPPGGGLAGKR, peptide start residue: 341)”, which log2 fold change is on record?
Answer: 0.486

Question: For “UniProt P50580 (peptide sequence: MGVVECAKHELLQPFNVLYEK, peptide start residue: 291)”, which log2 fold change is on record?
Answer: 0.213

Question: “UniProt P48036 (peptide sequence: LYDAYELK, peptide start residue: 88)” was tested. Which log2 fold change did it give?
Answer: -0.387

Question: “UniProt P51855 (peptide sequence: ASYILMEK, peptide start residue: 393)” was tested. Which log2 fold change did it give?
Answer: 0.12

Question: Which log2 fold change does the source give for “UniProt P43247 (peptide sequence: VGAGDSQLK, peptide start residue: 712)” here?
Answer: -0.355

Question: How did the log2 fold change turn out when “UniProt P45952 (peptide sequence: NTYYASIAK, peptide start residue: 350)” was run?
Answer: 0.101

Question: Which log2 fold change does the source give for “UniProt P47963 (peptide sequence: ARVITEEEK, peptide start residue: 166)” here?
Answer: -0.152

Question: How did the log2 fold change turn out when “UniProt P51125 (peptide sequence: AKEEEHEKLGEK, peptide start residue: 540)” was run?
Answer: -0.386

Question: With “UniProt P43352 (peptide sequence: RQSHAPAEEVAAK, peptide start residue: 285)” as the target, how does the log2 fold change read?
Answer: 0.344

Question: “UniProt P46935 (peptide sequence: TGGSEIVVTNK, peptide start residue: 704)” was tested. Which log2 fold change did it give?
Answer: -0.565

Question: “UniProt P51612 (peptide sequence: IKMEFETYLR, peptide start residue: 178)” was tested. Which log2 fold change did it give?
Answer: 0.221

Question: With “UniProt P49698 (peptide sequence: AHAGEHLLLGATK, peptide start residue: 222)” as the target, how does the log2 fold change read?
Answer: -0.203

Question: With “UniProt P40694 (peptide sequence: EKGNFRSEIK, peptide start residue: 314)” as the target, how does the log2 fold change read?
Answer: 0.435

Question: “UniProt P35585 (peptide sequence: LGLNDKVLFDNTGR, peptide start residue: 212)” was tested. Which log2 fold change did it give?
Answer: -0.437

Question: Which log2 fold change does the source give for “UniProt P52293 (peptide sequence: KGVVPQLVK, peptide start residue: 292)” here?
Answer: -0.205

Question: For “UniProt P47941 (peptide sequence: IFDPQNPDDNE, peptide start residue: 293)”, which log2 fold change is on record?
Answer: 0.363

Question: For “UniProt P47739 (peptide sequence: HLTPVTLELGGK, peptide start residue: 200)”, which log2 fold change is on record?
Answer: 0.1

Question: How did the log2 fold change turn out when “UniProt P53994 (peptide sequence: KEEGEAFAR, peptide start residue: 131)” was run?
Answer: -0.307

Question: For “UniProt P51660 (peptide sequence: ISDEDWDIIHRVHLR, peptide start residue: 111)”, which log2 fold change is on record?
Answer: 0.373

Question: For “UniProt P52793 (peptide sequence: FTPFILGK, peptide start residue: 111)”, which log2 fold change is on record?
Answer: -0.00111

Question: Which log2 fold change does the source give for “UniProt P39053 (peptide sequence: TIGVITKLDLMDEGTDAR, peptide start residue: 200)” here?
Answer: 0.207

Question: How did the log2 fold change turn out when “UniProt P51880 (peptide sequence: QVGNVTKPTVIISQEGGK, peptide start residue: 32)” was run?
Answer: 0.303

Question: Which log2 fold change does the source give for “UniProt P39447 (peptide sequence: HALLDVTPNAVDR, peptide start residue: 703)” here?
Answer: 0.447

Question: “UniProt P52795 (peptide sequence: AAALSLSTLASPK, peptide start residue: 276)” was tested. Which log2 fold change did it give?
Answer: -0.265

Question: Which log2 fold change does the source give for “UniProt P53762 (peptide sequence: QQQQQHTELDMVPGR, peptide start residue: 503)” here?
Answer: -0.285

Question: Which log2 fold change does the source give for “UniProt P46467 (peptide sequence: KFTEDFGQEG, peptide start residue: 435)” here?
Answer: -0.128

Question: How did the log2 fold change turn out when “UniProt P49717 (peptide sequence: LSEEASQALIEAYVNMRK, peptide start residue: 701)” was run?
Answer: -0.22

Question: For “UniProt P52825 (peptide sequence: DVWAELR, peptide start residue: 297)”, which log2 fold change is on record?
Answer: -0.289

Question: Which log2 fold change does the source give for “UniProt P38585 (peptide sequence: LGHEPGLAQLVNYYR, peptide start residue: 52)” here?
Answer: 0.315
